This assay deals with T1, 3xFLAG-SNAP-23 (human) (UniProt O00161).
T1 sequence: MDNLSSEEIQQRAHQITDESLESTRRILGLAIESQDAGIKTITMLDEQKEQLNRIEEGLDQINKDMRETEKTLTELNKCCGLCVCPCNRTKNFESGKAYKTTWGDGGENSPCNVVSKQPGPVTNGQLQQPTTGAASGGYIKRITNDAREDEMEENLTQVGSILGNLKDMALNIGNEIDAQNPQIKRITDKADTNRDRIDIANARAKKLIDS
The assay can be described thus: co-IP; HeLa cells infected with C. trachomatis L2 (MOI 5) or mock infected, transfected with 3xFLAG-SNAP-23; lysed at 24 h pi in 50 mM Tris pH 8.0, 150 mM NaCl, 10 mM EDTA, 5% glycerol, 1% Triton X-100; anti-FLAG (M2) overnight at 4°C, Protein G Plus agarose; Western blot. On the technique in general: A western blot detects proteins with antibodies after separation by electrophoresis.

Results are given in words; binding and its absence hold for the method and conditions named. In cells and extracts the contact can be indirect. Some results given as binding are weak or reduced against the parent protein; the word gives no strength. Tags and fused reporters may be left off the sequences shown.

B1: Syntaxin 3 (protein, UniProt Q13277 1-289)
chain: MKDRLEQLKAKQLTQDDDTDAVEIAIDNTAFMDEFFSEIEETRLNIDKISEHVEEAKKLYSIILSAPIPEPKTKDDLEQLTTEIKKRANNVRNKLKSMEKHIEEDEVRSSADLRIRKSQHSVLSRKFVEVMTKYNEAQVDFRERSKGRIQRQLEITGKKTTDEELEEMLESGNPAIFTSGIIDSQISKQALSEIEGRHKDIVRLESSIKELHDMFMDIAMLVENQGEMLDNIELNVMHTVDHVEKARDETKKAVKYQSQARKKLIIIIVLVVVLLGILALIIGLSVGLN
As for B1, the binding result is listed as “binds”.
